Drawing on PubChem BioAssay AID2685 (National Center for Advancing Translational Sciences (NCATS), 2010), this text covers cell number change and AC50 for 62 compounds.

This is one part of the list. Further columns of the screen follow, without active or inactive calls. Compounds called inactive in the main read-out are mostly missing here. Potencies come from curve fits of mixed quality, noted in brackets.

A short description of this test: qHTS Assay for Lipid Storage Modulators in Drosophila S3 Cells.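 As to cell number change: cells counted by Cell Tracker Red CMTPX staining in the red channel.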 Conditions: BODIPY lipid droplet fluorescence, 18-24 h; for cell number change: measured here: cell count max response, cells fed with added oleic acid. The essentials:
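Laser-scanning cytometry quantifies lipid droplet accumulation (500–530 nm total intensity; droplet/cell object ratio) in oleic acid-fed (400 uM added) Drosophila S3 cells treated with a concentration series. 20 uM Triacsin C defined 100% inhibition.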

The mark [1] stands for this setting: measured here: lipid fluorescence (Fed channel) AC50, cells fed with added oleic acid.
[2] abbreviates: measured here: cell number channel AC50, cells fed with added oleic acid.

As to `CC(C)(C)OC(=O)[C@H](Cc1ccccc1)NC(=O)c1nc[nH]c1C(=O)N1CCN(c2ccccc2)CC1`, the cell number change turned out to be 6.89%. Moreover, the AC50 under setting [1] was 29.1 µM [falling, single point]. Take `COc1ccc(-n2nc3ccccc3n2)cc1`: the cell number change was 0.377%. Regarding `O=C(NCC(c1cccs1)N1CCOCC1)C1CCN(S(=O)(=O)c2c(Cl)cccc2Cl)CC1` (stereo not given), the cell number change amounted to 29.1%. The AC50 under setting [1] is 23.1 µM [rising, single point]. Consider `O=C(NCc1ccccn1)Nc1ccc(Cl)cc1Cl`, for which the cell number change is -1.62%. Under setting [1], the AC50 was 0.562 µM [rising, full curve, poor fit].

For `CCCCN(C(=O)CSCC(=O)Nc1cccc(C)c1)c1c(N)n(CCCC)c(=O)[nH]c1=O`, the cell number change was found to be 76.5%. Moreover, the AC50 under setting [2] is 16.4 µM [rising, partial curve].

On to `CC(=O)Nc1nc2ccccc2[nH]1`, for which the cell number change is -15.2%. Moreover, the AC50 under setting [2] is 2.59 µM [falling, single point]. As for `C=CCOC(=O)CCCCCCCC`, the cell number change is -18.5%. On the same count and under the same terms, in the case of `CC(C)COC(=O)N1CC(O)CC1C(=O)O` (stereo not given) it was 8.49%. Regarding `O=C1NCCN1CCN1C(=O)c2ccccc2NC1c1ccccc1` (stereo not given), the cell number change amounted to 21.3%. Further, the AC50 under setting [1] was 0.731 µM [rising, full curve, poor fit]. With `Cc1cc2cc(C)c(NCCNC(=O)c3cccs3)nc2cc1C`, the cell number change is -25.7%. Under setting [1], the AC50 was 13 µM [falling, single point]. Turning to `Cc1cc(NC(=O)CSc2nc3cc(C)c(C)cc3cc2C)no1`, the cell number change amounted to 14.9%. The AC50 under setting [1] is 29.1 µM [rising, single point]. Turning to `Cc1ccc(C(C(=O)NCc2ccc(F)cc2)N(CCCO)C(=O)C2COc3ccccc3O2)o1` (stereo not given), the cell number change is -7.66%. Also, the AC50 under setting [1] was 1.64 µM [rising, partial curve, poor fit]. For `Cc1cccc(C)c1NC(=O)COC(=O)CNC(=O)C1CCCCC1`, the cell number change came to 1.59%.

Regarding `CC(C)CN(C(=O)Cn1c(C(F)(F)F)nc2ccccc21)C1CCS(=O)(=O)C1` (stereo not given), the cell number change is -0.98%. Further, the AC50 under setting [1] was 0.231 µM [falling, full curve, poor fit]. Regarding `CC(NC(=O)COC(=O)c1cc([N+](=O)[O-])ccc1N1CCOCC1)c1ccc(F)cc1` (stereo not given), the cell number change came to 97.3%. Moreover, the AC50 under setting [2] was 9.2 µM [rising, partial curve].

`CC(=O)Nc1ccc(Nc2nc(C)nc3c2oc2ccccc23)cc1`: the cell number change is -17.3%. Besides, the AC50 under setting [1] is 4.11 µM [rising, single point]. For the compound `CC1CCN(CCc2nc3cc(NC(=O)COc4ccc(Cl)cc4)ccc3n2C)CC1`, the cell number change was 33%. Also, the AC50 under setting [2] is 1.84 µM [rising, full curve]. The AC50 under setting [1] is 29.1 µM [rising, single point].

With `COc1cc2c(c(OC)c1OC)CCc1cnoc1-2`, the cell number change worked out at 17.7%. Also, the AC50 under setting [2] is 6.51 µM [rising, single point]. Moreover, the AC50 under setting [1] was 0.13 µM [rising, full curve, poor fit]. For `CCCCCCCCOC(=O)c1nc(Cl)c(Cl)c(N)c1Cl`, the cell number change is -44.5%. In addition, the AC50 under setting [2] was 32.6 µM [falling, single point]. The AC50 under setting [1] was 29.1 µM [falling, single point].

`CCOc1ccc(S(=O)(=O)/N=C(/Nc2ccc(OC)cc2)c2ccccc2)cc1`: the cell number change is -0.578%. Also, the AC50 under setting [1] was 16.4 µM [rising, single point]. As to `O=C(COc1ccc(F)cc1)Nc1ccccc1N1CCOCC1`, the cell number change is 32.5%. Under setting [2], the AC50 is 2.91 µM [rising, partial curve]. Moreover, the AC50 under setting [1] is 2.31 µM [rising, partial curve]. In the case of `CCOC(=O)CCC(=O)Nc1ccc(S(=O)(=O)N2CCCC2)cc1`, the cell number change was -77.4%. As for `Nc1ccc(-c2nc3ccccc3s2)cn1`, the cell number change is -8.57%. With `CCN1CCc2c(sc(NC(=O)c3ccc(C(=O)c4ccccc4)cc3)c2C(N)=O)C1`, the cell number change is -35.6%. Moreover, the AC50 under setting [2] was 8.2 µM [falling, partial curve]. The AC50 under setting [1] was 14.6 µM [falling, partial curve].

On to `CCOc1ccc(-c2csc(NC(=O)c3ccco3)n2)cc1`, for which the cell number change was -15.5%.

In the case of `O=C(CSc1nc2ccccc2s1)c1cc2ccccc2o1`, the AC50 was 0.0651 µM [rising, full curve, poor fit] under setting [2] and 0.13 µM [rising, full curve, poor fit] under setting [1]. Take `CCC1(c2ccccc2)NC(=S)N(c2cccc(C)c2C)N1` (stereo not given): the cell number change came to 25.8%. The AC50 under setting [1] is 11.6 µM [rising, partial curve]. With `CC1(C)Cc2c(sc3[nH]c(=S)[nH]c(=O)c23)CO1`, the cell number change worked out at 16.5%. Further, under setting [2], the AC50 was 6.51 µM [rising, single point]. With `Cc1ccc(C(=O)OCc2nnc(-c3ccccc3)o2)o1`, the cell number change is -1.87%. In addition, the AC50 under setting [1] is 0.651 µM [rising, partial curve, poor fit]. With `CC(=O)Oc1ccc(/C=C2/C(=O)N(c3ccccc3)N=C2C)cc1`, the cell number change is -8.33%.

As for `COc1ccc(-n2c(O)c(/C=C3\C=Nc4ccccc43)c(=O)[nH]c2=O)cc1`, the cell number change was determined as 12%. In the case of `CCOC(=O)c1c(/N=C/N(C)C)sc(/C=N/Nc2ccccc2)c1-c1ccc(Cl)cc1`, the cell number change was -50.9%. Also, the AC50 under setting [2] is 8.2 µM [falling, partial curve, poor fit]. Moreover, the AC50 under setting [1] is 6.51 µM [falling, single point]. `Cc1ccc(NC(=O)c2ccccc2NC(=O)c2cccnc2)cc1`: the cell number change is -6.82%. Besides, the AC50 under setting [1] is 10.3 µM [falling, partial curve]. For the compound `Cc1cc(C)cc(N(CC(=O)N2CCN(c3ccccc3)CC2)S(=O)(=O)c2c(C)noc2C)c1`, the cell number change turned out to be 16.7%. In addition, the AC50 under setting [1] was 18.4 µM [rising, single point].

With `CCS(=O)(=O)N1N=C(c2ccc(NS(C)(=O)=O)cc2)CC1c1ccccc1` (stereo not given), the cell number change is -29.5%. Moreover, the AC50 under setting [2] was 0.103 µM [falling, full curve, poor fit]. Also, the AC50 under setting [1] was 2.31 µM [falling, partial curve]. Take `CC(C)C(=O)Nc1ccc(C(=O)NNC(=O)CCCOc2ccc(Cl)cc2Cl)cc1`: the cell number change is -2.79%. For the compound `Cn1ccnc1SCC(=O)c1cccc(Br)c1`, the cell number change came out at 47.1%. In addition, the AC50 under setting [2] is 23.1 µM [rising, single point]. As to `CC1(C)N=C2C(=[N+]1[O-])CCC/C2=N\O`, the cell number change was determined as 30.4%. Further, the AC50 under setting [2] is 5.8 µM [rising, single point]. Consider `Cc1ccc(C(=O)C(C)OC(=O)CNS(=O)(=O)c2ccc(C)cc2)cc1` (stereo not given), for which the cell number change is -7.94%. The AC50 under setting [1] was 0.092 µM [falling, full curve, poor fit]. Regarding `Cc1cccc(/C=N/Nc2nncc3ccccc23)c1`, the cell number change is 35.2%. The AC50 under setting [2] was 10.3 µM [rising, partial curve, poor fit]. Further, the AC50 under setting [1] was 10.3 µM [rising, partial curve].

As to `O=C(Cc1cc(=O)oc2cc(O)ccc12)NCC1CCC(C(=O)O)CC1` (stereo not given), the cell number change stood at 8.36%. In the case of `CCOc1cc2[nH]c(=S)n(CCN3CCCCC3C)c(=O)c2cc1OCC` (stereo not given), the cell number change is -40.7%. Under setting [2], the AC50 is 29.1 µM [falling, single point]. The AC50 under setting [1] was 32.6 µM [falling, single point]. Consider `COc1ccc(NC(=O)COC(=O)CCC(=O)c2cccs2)cc1OC`, for which the cell number change was -54.5%. The AC50 under setting [2] is 5.17 µM [falling, partial curve, poor fit]. Also, the AC50 under setting [1] was 3.66 µM [falling, partial curve, poor fit]. In the case of `Cc1ccc(C(=O)CSc2nc(O)cc(=O)[nH]2)cc1C`, the cell number change was determined as 32.9%. The AC50 under setting [2] is 32.6 µM [rising, single point]. Regarding `CCOC(=O)c1ccc(NC(=S)Nc2cc(C)cc(C)n2)cc1`, the cell number change is -8%. Regarding `COC(=O)CCCCNC(=O)Nc1ccccc1`, the cell number change is -17.3%. Consider `COc1ccc(/C=N/NC(=O)c2ccoc2C)cc1CN1CCN(c2ccc(F)cc2)CC1`, for which the cell number change is 57%. Under setting [2], the concentration at half-maximal activity (AC50) is 8.2 µM [rising, partial curve].

Turning to `CC(C)(CC(=O)O)CC(=O)Nc1ccccc1Oc1ccccc1`, the cell number change turned out to be 18.5%. Regarding `O=C(O)CSCCn1cccn1`, the cell number change was -42.4%. Further, under setting [2], the AC50 is 2.31 µM [falling, full curve]. The AC50 under setting [1] is 2.31 µM [falling, full curve]. On to `Cc1noc(C)c1C(=O)OCC(=O)c1c(N)n(CC(C)C)c(=O)n(C)c1=O`, for which the cell number change was -10.1%. The AC50 under setting [2] was 0.103 µM [rising, full curve, poor fit]. The AC50 under setting [1] was 29.1 µM [falling, partial curve, poor fit]. With `O=C(Nc1ccc(Cc2ccncc2)cc1)C1CCC(N2C(=O)C3C4C=CC(C4)C3C2=O)CC1` (stereo not given), the cell number change was -23.5%. As for `OC[C@@H](O)[C@@H](O)[C@H](O)[C@H](O)CO`, the cell number change is -24.5%. Besides, the AC50 under setting [1] was 0.13 µM [falling, full curve, poor fit]. With `N#Cc1ccsc1NC(=O)COC(=O)c1cc2ccccc2cc1O`, the cell number change is -19.5%. Under setting [1], the AC50 was 5.8 µM [rising, full curve].

In the case of `C/C(=N\NC(=O)C1(C)CC1(Br)Br)c1ccc(NC(=O)C2CCC2)cc1` (stereo not given), the cell number change was -30%. Under setting [1], the AC50 is 29.1 µM [falling, single point]. Consider `O=C(NCC1CCCN1S(=O)(=O)c1cccs1)c1cccc(Cl)c1` (stereo not given), for which the cell number change amounted to 59.6%. Moreover, under setting [2], the AC50 is 18.4 µM [rising, partial curve]. `CCOC(=O)Nc1c(C)n(C)n(-c2ccccc2)c1=O`: the cell number change was -9.3%. For the same compound, the AC50 under setting [2] is 0.164 µM [falling, full curve]. Take `Nc1c(C(=O)c2cccs2)oc2ccccc12`: the cell number change is -17.5%. Also, the AC50 under setting [1] was 0.0184 µM [rising, full curve, poor fit]. Consider `COc1ccc(C2/C=C\CN(C(=O)c3ccccc3)CC(=O)N2Cc2ccc(F)cc2)cc1` (stereo not given), for which the cell number change was -35.5%. The AC50 under setting [2] was 29.1 µM [falling, single point]. Also, the AC50 under setting [1] was 29.1 µM [falling, single point]. With `CN(C)/C=C(\C#N)C(=O)c1cccnc1Oc1ccc(F)cc1F`, under setting [1], the AC50 was 29.1 µM [rising, single point]. As to `COc1ccc(C2/C=C\CN(C(=O)Oc3ccc(C(F)(F)F)cc3)CC(=O)N2Cc2ccc(F)cc2)cc1` (stereo not given), the cell number change was 7.57%. For the same compound, under setting [1], the AC50 is 1.64 µM [rising, partial curve, poor fit]. With `COCCNc1ncnc2c1cnn2-c1ccc(Cl)cc1`, the cell number change was -0.101%. For the same compound, the AC50 under setting [1] was 0.00461 µM [rising, full curve, poor fit]. Turning to `Cn1c(=O)[nH]c(=O)c2c1nc(N1CCCCCC1)n2Cc1cccc2ccccc12`, the cell number change turned out to be 8.33%.
